Test [1] deals with T1, Pyrin (human (endogenous in MHCC97-H)) (UniProt O15553).
T1 sequence: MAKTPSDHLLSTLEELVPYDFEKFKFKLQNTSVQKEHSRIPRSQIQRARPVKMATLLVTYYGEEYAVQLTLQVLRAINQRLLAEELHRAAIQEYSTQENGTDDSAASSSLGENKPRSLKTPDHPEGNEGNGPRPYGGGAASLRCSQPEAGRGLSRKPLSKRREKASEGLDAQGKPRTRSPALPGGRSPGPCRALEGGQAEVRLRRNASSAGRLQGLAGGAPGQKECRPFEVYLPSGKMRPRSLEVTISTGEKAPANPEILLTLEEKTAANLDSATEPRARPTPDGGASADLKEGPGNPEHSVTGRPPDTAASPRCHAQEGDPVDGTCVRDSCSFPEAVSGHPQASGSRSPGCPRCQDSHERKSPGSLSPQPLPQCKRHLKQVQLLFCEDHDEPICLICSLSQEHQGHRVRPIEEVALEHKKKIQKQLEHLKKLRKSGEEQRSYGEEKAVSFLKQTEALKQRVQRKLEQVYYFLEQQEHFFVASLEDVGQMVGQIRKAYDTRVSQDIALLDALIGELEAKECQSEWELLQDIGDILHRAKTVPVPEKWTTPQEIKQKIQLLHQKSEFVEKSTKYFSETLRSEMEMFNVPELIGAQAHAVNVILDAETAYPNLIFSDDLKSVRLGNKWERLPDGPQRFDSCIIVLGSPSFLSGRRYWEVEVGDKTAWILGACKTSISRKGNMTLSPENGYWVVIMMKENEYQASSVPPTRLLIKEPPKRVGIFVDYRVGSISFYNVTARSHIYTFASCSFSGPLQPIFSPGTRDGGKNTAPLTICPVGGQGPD
The test is described as follows: co-IP; endogenous proteins of LV-veh and LV-D (DNASE1L3-overexpressing) MHCC97-H HCC cells, with or without sorafenib (20 uM, 24 h); also done in LV-R206C cells (interaction markedly reduced) and ShAIM2 cells (complex formation diminished); precipitating antibody not told in the text shown.

By UniProt entry, the sequences of proteins in these tests, tags left out.
UniProt Q13546: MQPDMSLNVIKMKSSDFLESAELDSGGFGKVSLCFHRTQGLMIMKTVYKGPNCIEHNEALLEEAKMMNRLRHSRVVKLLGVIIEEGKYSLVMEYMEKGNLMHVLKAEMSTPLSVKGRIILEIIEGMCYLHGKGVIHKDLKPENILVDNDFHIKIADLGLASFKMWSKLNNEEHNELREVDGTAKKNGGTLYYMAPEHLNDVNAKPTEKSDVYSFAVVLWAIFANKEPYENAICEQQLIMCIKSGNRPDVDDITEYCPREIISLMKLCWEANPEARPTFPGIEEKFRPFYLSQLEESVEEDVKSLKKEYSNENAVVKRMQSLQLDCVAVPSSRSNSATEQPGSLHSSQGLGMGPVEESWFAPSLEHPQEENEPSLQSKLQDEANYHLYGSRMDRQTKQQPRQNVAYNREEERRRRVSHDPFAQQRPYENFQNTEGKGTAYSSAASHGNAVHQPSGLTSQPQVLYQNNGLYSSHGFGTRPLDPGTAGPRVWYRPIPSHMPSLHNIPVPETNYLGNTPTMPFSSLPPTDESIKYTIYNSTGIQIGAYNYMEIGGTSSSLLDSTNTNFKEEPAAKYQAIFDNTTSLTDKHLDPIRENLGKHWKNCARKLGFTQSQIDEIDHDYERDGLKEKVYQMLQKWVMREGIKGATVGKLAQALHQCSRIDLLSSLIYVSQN
UniProt Q14790: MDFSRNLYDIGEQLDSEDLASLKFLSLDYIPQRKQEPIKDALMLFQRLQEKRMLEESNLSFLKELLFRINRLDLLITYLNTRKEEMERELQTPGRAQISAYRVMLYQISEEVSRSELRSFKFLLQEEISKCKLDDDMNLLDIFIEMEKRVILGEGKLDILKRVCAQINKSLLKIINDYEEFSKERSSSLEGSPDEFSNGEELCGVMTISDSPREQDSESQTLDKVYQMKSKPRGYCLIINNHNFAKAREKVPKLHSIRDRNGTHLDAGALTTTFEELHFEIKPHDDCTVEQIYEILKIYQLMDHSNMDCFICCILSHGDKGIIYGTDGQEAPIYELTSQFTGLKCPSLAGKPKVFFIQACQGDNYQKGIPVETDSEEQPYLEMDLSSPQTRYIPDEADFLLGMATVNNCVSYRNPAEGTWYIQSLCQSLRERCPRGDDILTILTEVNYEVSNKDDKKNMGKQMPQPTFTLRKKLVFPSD

Test [2] addresses T1, Pyrin (human (endogenous in MHCC97-H)). The description is as above. This is another data set of the same source.

Where two headings read alike, the source gives them in different places. Results are given in words; binding and its absence hold for the method and conditions named. Binding seen in cells or lysates may run through a third protein. Some binding calls cover weakened binding; strength is not graded here.

Our source for the binding values is paper PMC11519790.

Consider “receptor-interacting protein kinase 1 (from UniProt Q13546 1-671)”, for which the binding result in test [1] is “binds”.
Same read-out and setting: as for caspase-8 (from UniProt Q14790 1-479), the entry is “binds”.

B1: absent in melanoma 2 (protein, UniProt O14862 1-343)
chain: MESKYKEILLLTGLDNITDEELDRFKFFLSDEFNIATGKLHTANRIQVATLMIQNAGAVSAVMKTIRIFQKLNYMLLAKRLQEEKEKVDKQYKSVTKPKPLSQAEMSPAASAAIRNDVAKQRAAPKVSPHVKPEQKQMVAQQESIREGFQKRCLPVMVLKAKKPFTFETQEGKQEMFHATVATEKEFFFVKVFNTLLKDKFIPKRIIIIARYYRHSGFLEVNSASRVLDAESDQKVNVPLNIIRKAGETPKINTLQTQPLGTIVNGLFVVQKVTEKKKNILFDLSDNTGKMEVLGVRNEDTMKCKEGDKVRLTFFTLSKNGEKLQLTSGVHSTIKVIKAKKKT
As to B1, the binding result in test [2] is “binds”.
